Data reported in US20110098213 (published 2011).

Experiments:
[1] = general procedure: Fmoc solid-phase peptide synthesis; Fmoc-Rink resin (4-(2',4'-dimethoxyphenyl-Fmoc-aminomethyl)-phenoxypolystyrene resin, Bachem D-2080; 0.47 mmol/g); HOBt (HOAt and DIPEA for Fmoc-Glu(2-phenylisopropyloxy)-OH); conditions: whole synthesis, UV 214 and 254 nm, scale of the general procedure 0.10 mmol, hydrochloride
[2] = general procedure: Fmoc solid-phase peptide synthesis; Rink amide polystyrene; HOBt (HOAt and DIPEA for Fmoc-Glu(2-phenylisopropyloxy)-OH); conditions: whole synthesis, scale 0.10 mmol, hydrochloride

Q: With “2-[2-(Hexadecanoylamino)ethoxy]ethoxyacetyl-Gly-Thr-Gln-His-Ser-Nle-c[Glu-Hyp-D-Phe-Arg-Trp-Lys]-NH2” as the substance, how does the “final HPLC purity” value [1] read?
A: Its value is 98%.

Q: What about the isolated mass [2] of the same substance?
A: The isolated mass was 36.2 mg.

Q: And the isolated yield [2]?
A: The isolated yield was 19%.
